Data: the supplement of paper PMC10849652
Some of the results follow.

By UniProt entry, the sequences of proteins in these tests, tags left out. Where a name states a change or a piece, a line headed by the entry shows the natural chain unless it says otherwise.
UniProt Q641Q2, whole entry, looked up: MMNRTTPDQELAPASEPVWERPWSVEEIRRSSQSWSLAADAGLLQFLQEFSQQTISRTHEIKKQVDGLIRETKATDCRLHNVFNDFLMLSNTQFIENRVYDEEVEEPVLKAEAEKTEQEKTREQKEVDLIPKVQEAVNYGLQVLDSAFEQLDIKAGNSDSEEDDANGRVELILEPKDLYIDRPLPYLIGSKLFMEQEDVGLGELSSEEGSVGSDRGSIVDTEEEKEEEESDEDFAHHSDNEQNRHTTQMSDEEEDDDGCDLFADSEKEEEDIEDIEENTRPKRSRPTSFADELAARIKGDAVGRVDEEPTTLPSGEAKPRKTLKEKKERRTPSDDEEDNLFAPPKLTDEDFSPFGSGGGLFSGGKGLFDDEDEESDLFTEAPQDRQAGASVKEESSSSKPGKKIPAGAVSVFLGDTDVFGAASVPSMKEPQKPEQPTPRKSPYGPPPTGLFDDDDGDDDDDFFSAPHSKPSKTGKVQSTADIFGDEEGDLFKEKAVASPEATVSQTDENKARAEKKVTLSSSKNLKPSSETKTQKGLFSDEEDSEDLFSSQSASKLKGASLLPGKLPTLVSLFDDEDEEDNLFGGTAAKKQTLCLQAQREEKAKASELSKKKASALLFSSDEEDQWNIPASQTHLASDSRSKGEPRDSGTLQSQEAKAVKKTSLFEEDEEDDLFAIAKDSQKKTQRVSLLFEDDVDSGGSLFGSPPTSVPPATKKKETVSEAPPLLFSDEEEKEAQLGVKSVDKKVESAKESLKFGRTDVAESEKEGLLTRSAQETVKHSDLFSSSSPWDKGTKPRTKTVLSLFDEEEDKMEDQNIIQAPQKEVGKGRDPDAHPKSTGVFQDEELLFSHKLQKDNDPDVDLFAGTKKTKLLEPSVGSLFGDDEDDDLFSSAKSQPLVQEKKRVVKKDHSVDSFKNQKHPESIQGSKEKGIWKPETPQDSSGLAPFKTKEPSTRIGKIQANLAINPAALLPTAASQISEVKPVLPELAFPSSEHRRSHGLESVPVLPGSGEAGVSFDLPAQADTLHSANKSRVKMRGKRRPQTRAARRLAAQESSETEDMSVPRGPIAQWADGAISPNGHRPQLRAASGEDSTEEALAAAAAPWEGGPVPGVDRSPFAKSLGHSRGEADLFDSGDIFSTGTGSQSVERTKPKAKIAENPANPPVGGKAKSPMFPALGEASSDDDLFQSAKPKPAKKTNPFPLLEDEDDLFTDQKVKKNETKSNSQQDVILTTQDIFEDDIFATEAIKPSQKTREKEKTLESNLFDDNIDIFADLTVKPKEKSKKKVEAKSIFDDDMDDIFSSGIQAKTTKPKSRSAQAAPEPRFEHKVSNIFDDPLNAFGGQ
UniProt Q96JC1: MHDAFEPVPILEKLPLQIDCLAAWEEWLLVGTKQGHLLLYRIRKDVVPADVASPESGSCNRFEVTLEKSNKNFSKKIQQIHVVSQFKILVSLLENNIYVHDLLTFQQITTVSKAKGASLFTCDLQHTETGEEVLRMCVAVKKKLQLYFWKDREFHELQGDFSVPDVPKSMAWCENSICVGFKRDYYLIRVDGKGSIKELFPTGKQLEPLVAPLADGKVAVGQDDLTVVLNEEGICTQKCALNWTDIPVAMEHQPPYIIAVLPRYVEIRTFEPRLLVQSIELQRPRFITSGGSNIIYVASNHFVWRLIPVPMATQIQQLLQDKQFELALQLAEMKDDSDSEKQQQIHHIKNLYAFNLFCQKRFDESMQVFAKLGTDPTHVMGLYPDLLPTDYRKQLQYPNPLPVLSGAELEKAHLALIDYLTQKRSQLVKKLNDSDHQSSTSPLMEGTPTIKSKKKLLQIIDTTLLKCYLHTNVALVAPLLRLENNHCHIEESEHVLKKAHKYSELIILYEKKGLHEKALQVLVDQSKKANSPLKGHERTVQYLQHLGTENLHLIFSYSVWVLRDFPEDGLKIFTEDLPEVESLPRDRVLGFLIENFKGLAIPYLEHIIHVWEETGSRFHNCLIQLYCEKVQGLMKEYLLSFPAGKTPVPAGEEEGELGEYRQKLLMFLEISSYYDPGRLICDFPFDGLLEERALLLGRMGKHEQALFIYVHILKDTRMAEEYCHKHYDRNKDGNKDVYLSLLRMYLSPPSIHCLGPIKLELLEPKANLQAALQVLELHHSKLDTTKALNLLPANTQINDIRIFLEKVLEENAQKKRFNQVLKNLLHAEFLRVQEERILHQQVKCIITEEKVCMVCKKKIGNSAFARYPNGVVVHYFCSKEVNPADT
UniProt Q9Y6W5, whole entry, looked up: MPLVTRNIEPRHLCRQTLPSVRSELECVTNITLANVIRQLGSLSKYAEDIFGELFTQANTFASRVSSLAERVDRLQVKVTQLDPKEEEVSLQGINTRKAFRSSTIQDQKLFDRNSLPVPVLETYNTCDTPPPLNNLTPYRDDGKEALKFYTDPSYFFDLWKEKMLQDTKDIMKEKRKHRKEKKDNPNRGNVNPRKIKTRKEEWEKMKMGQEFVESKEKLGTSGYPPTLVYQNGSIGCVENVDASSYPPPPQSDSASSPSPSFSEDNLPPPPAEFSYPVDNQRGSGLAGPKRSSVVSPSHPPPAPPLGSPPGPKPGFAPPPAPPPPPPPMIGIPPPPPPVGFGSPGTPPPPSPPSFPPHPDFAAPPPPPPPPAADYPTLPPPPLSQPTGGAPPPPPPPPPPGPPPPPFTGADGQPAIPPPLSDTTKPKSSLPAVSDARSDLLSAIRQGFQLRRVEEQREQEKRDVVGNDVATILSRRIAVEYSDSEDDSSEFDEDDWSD
UniProt Q96GC9: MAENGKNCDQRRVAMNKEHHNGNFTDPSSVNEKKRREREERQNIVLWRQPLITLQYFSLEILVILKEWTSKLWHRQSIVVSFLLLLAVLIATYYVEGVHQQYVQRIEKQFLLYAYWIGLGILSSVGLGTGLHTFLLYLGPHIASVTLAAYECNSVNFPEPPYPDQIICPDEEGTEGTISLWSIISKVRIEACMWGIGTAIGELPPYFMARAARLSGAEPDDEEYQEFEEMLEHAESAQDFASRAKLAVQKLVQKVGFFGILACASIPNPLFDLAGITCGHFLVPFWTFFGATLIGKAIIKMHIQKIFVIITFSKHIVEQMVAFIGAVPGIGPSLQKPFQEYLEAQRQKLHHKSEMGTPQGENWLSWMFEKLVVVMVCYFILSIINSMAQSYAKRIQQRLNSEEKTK
UniProt Q8IWA0: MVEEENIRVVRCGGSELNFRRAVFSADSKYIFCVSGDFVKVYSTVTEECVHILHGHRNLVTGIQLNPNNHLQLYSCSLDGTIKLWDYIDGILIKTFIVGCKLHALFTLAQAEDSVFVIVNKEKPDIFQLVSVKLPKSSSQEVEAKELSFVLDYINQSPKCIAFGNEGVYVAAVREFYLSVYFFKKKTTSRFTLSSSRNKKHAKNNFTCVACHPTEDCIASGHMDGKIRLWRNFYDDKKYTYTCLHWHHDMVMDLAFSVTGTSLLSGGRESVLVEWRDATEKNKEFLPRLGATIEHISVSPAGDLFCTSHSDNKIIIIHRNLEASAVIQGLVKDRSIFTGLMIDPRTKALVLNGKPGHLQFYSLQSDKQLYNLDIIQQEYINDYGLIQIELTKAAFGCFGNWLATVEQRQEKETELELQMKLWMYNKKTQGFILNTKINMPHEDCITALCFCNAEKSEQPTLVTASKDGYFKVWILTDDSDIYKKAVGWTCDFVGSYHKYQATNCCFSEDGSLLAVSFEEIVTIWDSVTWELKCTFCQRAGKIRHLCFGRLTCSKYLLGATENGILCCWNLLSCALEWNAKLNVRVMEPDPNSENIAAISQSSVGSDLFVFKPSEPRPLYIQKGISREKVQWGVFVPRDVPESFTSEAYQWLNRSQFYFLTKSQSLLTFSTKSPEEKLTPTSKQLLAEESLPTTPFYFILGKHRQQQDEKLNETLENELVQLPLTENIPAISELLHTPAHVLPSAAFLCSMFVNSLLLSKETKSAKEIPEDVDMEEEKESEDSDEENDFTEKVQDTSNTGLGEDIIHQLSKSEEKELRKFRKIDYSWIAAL
UniProt O00401, whole entry, looked up: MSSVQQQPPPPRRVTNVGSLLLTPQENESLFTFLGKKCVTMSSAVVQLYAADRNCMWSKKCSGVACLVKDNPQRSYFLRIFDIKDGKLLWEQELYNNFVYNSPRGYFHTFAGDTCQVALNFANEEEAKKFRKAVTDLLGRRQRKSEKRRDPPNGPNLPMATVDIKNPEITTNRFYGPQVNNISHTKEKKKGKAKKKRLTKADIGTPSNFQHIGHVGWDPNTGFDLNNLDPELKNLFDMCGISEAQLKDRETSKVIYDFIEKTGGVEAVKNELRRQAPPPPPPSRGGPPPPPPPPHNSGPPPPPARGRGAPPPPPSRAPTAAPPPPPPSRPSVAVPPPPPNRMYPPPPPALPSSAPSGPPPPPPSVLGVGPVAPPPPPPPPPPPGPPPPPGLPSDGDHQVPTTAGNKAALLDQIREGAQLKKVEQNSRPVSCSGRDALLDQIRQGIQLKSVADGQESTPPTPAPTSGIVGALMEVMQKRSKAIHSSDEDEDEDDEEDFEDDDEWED
UniProt Q96S15: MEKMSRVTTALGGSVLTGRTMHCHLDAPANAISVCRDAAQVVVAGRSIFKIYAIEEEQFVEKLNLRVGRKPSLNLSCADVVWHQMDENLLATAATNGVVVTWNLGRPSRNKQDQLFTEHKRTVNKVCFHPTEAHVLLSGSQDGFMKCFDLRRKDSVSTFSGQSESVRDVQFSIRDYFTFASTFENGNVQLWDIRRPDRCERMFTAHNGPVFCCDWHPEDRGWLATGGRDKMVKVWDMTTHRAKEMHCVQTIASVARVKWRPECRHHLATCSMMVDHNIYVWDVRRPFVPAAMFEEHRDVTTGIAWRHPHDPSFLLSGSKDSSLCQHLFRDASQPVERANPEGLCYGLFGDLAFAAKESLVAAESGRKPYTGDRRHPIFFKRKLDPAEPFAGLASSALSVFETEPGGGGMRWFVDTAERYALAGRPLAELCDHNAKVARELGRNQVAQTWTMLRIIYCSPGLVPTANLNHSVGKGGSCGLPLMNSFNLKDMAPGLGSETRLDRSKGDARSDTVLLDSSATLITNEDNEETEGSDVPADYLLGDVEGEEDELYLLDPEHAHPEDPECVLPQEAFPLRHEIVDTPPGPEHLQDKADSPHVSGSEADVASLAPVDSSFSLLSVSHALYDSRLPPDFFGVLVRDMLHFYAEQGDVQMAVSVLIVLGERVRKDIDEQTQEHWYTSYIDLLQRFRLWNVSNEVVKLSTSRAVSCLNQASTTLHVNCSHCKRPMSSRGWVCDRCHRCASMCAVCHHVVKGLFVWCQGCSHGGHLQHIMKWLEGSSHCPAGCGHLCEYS
UniProt O75554: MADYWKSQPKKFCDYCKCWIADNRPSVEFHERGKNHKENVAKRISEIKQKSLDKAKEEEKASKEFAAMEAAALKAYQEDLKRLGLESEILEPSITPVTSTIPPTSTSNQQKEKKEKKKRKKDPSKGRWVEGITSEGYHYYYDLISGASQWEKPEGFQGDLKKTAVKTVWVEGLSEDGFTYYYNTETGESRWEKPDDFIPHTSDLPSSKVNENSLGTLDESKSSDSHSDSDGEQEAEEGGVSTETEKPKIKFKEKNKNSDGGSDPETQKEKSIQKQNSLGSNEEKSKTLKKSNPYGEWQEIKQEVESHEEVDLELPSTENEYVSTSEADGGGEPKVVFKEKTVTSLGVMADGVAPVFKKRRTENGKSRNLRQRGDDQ
UniProt O15213: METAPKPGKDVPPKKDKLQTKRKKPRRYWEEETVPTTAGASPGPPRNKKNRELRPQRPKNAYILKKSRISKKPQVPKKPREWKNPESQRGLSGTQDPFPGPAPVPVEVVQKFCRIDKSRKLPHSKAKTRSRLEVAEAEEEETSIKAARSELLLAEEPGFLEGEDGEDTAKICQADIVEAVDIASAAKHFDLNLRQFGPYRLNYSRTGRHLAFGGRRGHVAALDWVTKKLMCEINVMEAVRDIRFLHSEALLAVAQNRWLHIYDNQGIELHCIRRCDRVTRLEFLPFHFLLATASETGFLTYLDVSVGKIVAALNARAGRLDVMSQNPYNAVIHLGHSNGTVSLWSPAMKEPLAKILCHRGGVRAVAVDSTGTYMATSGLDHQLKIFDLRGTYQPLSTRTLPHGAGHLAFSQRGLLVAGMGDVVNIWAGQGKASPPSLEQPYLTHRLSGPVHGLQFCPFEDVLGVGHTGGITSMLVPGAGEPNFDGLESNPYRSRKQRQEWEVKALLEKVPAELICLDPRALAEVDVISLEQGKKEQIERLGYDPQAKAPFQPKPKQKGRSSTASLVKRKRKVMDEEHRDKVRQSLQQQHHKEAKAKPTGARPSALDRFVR

Assays:
Assay in all cases: log2 fold change, soluble protein after heating vs DMSO (PISA); higher = thermal stabilisation; K562 lysate, 10 uM; active = over 0.2 and 3.5 SD of the protein, either way, in both replicates (recomputed)
erlotinib = compound: C#Cc1cccc(Nc2ncnc3cc(OCCOC)c(OCCOC)cc23)c1 [erlotinib]
Summary of the method: (§1)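 Values give the log-two fold change in thermal stability against solvent controls, from duplicates. Crude K562 extract at 1 mg/mL protein, made by dounce homogenisation in PBS pH 7.4 with 1 mM MgCl2, was treated with 10 μM compound for 30 min. After 3 min heating across 48°C-58°C, aliquots were pooled, adjusted to 0.5% NP-40 at 4°C and centrifuged at 21,000xg for 90 min. The supernatant was measured by TMTpro 16plex LC-MS/MS with channel sums equalised.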

[1] = compound: C/C(=N\NC(=O)C1=CC(=CC=C1)S(=O)(=O)N2CCOCC2)/C3=C(C=CC(=C3)Cl)O
Summary of the method: as §1

[2] = compound: C1=CC(=CC=C1C2=NC3=C(N2)C=C(C=C3)C(=O)N)OC4=CC=C(C=C4)Cl
Summary of the method: as §1

[3] = compound: C1=CC2=C(C=CC(=C2)/C=C\3/C(=O)NC(=NCC4=CC=CS4)S3)N=C1
Summary of the method: as §1

[4] = compound: C1=CC2=NC=CN=C2C=C1/C=C/3\C(=O)NC(=O)S3
Summary of the method: as §1

[5] = compound: C1=CC=C(C=C1)C2=NC(=C(N2)C3=CC=NC=C3)C4=CC(=C(C=C4)Cl)O
Summary of the method: as §1

[6] = compound: C1=CC=C2C(=C1)C3=NNC4=CC=CC(=C43)C2=O
Summary of the method: as §1

[7] = compound: C1CCN(C1)C(=O)NC2=CC=CC(=C2)NC3=NC=C(C(=N3)NCCC4=CN=CN4)Br
Summary of the method: as §1

[8] = compound: C1CN(CCC1(CC2=CC=C(C=C2)Cl)N)C3=NC=NC4=C3C=CN4
Summary of the method: as §1

IRAK-1-4 Inhibitor I = compound: C1COCCN1CCN2C3=CC=CC=C3N=C2NC(=O)C4=CC(=CC=C4)[N+](=O)[O-] [IRAK-1-4 Inhibitor I]
Summary of the method: as §1

ibrutinib = compound: C=CC(=O)N1CCC[C@@H](n2nc(-c3ccc(Oc4ccccc4)cc3)c3c(N)ncnc32)C1 [ibrutinib]
Summary of the method: as §1

[9] = compound: CC(=O)c1cnc2ccc(-c3cc(Cl)c(O)c(Cl)c3)nc2c1N[C@H]1CC[C@H](CN(C)C)CC1
Summary of the method: as §1

ralimetinib = compound: CC(C)(C)Cn1c(N)nc2ccc(-c3[nH]c(C(C)(C)C)nc3-c3ccc(F)cc3)nc21 [ralimetinib]
Summary of the method: as §1

[10] = compound: CC(C)(O)CC(=O)NCCn1ccc2ncnc(Nc3ccc(Oc4cccc(C(F)(F)F)c4)c(Cl)c3)c21
Summary of the method: as §1

[11] = compound: CC(C)C1=C2N=C(C=C(N2N=C1)NCC3=CC=CC=C3)NCCCCCCN
Summary of the method: as §1

[12] = compound: CC1=C(C(CC(=O)N1)C2=CC=C(C=C2)C(F)(F)F)C(=O)NC3=C(C=C4C(=C3)C=NN4)F
Summary of the method: as §1

[13] = compound: CC1=C(C2=C(C=C1)C(=O)C3=CC=CC=C3N2CCCN)C
Summary of the method: as §1

[14] = compound: CC1=C(C=C(C=C1)NC(=O)C2=CC(=CC=C2)C(C)(C)C#N)NC3=CC4=C(C=C3)N=CN(C4=O)C
Summary of the method: as §1

[15] = compound: CC1=C(C=C(C=C1)NC(=O)C2=CC(=CC=C2)N(C)C)NC(=O)C3=CC=C(C=C3)O
Summary of the method: as §1

[16] = compound: CC1=CC=C(C=C1)SC2=C3C=C(SC3=CN=C2)C(=O)N
Summary of the method: as §1

Measured: log2 fold change

WRAP73 (UniProt Q9P2S5)
inactive: erlotinib 0.022 | [1] -0.061 | [2] -0.097 | [3] -0.007 | [4] -0.049 | [5] -0.024 | [6] -0.008 | [7] -0.015 | [8] 0.005 | IRAK-1-4 Inhibitor I 0.045 | ibrutinib 0.048 | [9] 0.009 | ralimetinib -0.002 | [10] 0.022 | [11] -0.065 | [12] -0.009 | [13] 0.141 | [14] 0.053 | [15] 0.017 | [16] -0.038

WASHC2A (UniProt Q641Q2)
inactive: erlotinib 0 | [1] -0.006 | [2] 0.011 | [3] 0.009 | [4] -0.006 | [5] -0.006 | [6] -0.001 | [7] 0 | [8] 0.005 | IRAK-1-4 Inhibitor I -0.009 | ibrutinib 0.001 | [9] -0.007 | ralimetinib -0.009 | [10] -0.014 | [11] -0.02 | [12] -0.01 | [13] -0.037 | [14] 0.002 | [15] 0.013 | [16] -0.027

VPS39 (UniProt Q96JC1)
inactive: erlotinib 0.015 | [1] -0.022 | [2] -0.005 | [3] -0.003 | [4] -0.002 | [5] 0.015 | [6] -0.007 | [7] -0.034 | [8] 0.031 | IRAK-1-4 Inhibitor I 0.019 | ibrutinib 0 | [9] 0.021 | ralimetinib -0.012 | [10] -0.056 | [11] -0.004 | [12] 0.014 | [13] 0 | [14] 0.016 | [15] -0.014 | [16] -0.005

WDR48 (UniProt Q8TAF3)
inactive: erlotinib -0.001 | [1] -0.032 | [2] 0.036 | [3] -0.003 | [4] -0.005 | [5] -0.015 | [6] -0.009 | [7] 0.001 | [8] -0.01 | IRAK-1-4 Inhibitor I -0.001 | ibrutinib 0.007 | [9] -0.012 | ralimetinib 0.017 | [10] -0.01 | [11] -0.032 | [12] 0.008 | [13] -0.032 | [14] 0.01 | [15] -0.01 | [16] -0.013

Reprinted from above (2 entries):
VPS39 (UniProt Q96JC1)
inactive: erlotinib 0.015 | [1] -0.022 | [2] -0.005 | [3] -0.003 | [4] -0.002 | [5] 0.015 | [6] -0.007 | [7] -0.034 | [8] 0.031 | IRAK-1-4 Inhibitor I 0.019 | ibrutinib 0 | [9] 0.021 | ralimetinib -0.012 | [10] -0.056 | [11] -0.004 | [12] 0.014 | [13] 0 | [14] 0.016 | [15] -0.014 | [16] -0.005

WDR48 (UniProt Q8TAF3)
inactive: erlotinib -0.001 | [1] -0.032 | [2] 0.036 | [3] -0.003 | [4] -0.005 | [5] -0.015 | [6] -0.009 | [7] 0.001 | [8] -0.01 | IRAK-1-4 Inhibitor I -0.001 | ibrutinib 0.007 | [9] -0.012 | ralimetinib 0.017 | [10] -0.01 | [11] -0.032 | [12] 0.008 | [13] -0.032 | [14] 0.01 | [15] -0.01 | [16] -0.013

Later entries.

VPS18 (UniProt Q9P253)
inactive: erlotinib 0.018 | [1] 0.056 | [2] -0.032 | [3] -0.021 | [4] -0.016 | [5] 0.051 | [6] -0.076 | [7] -0.017 | [8] 0.053 | IRAK-1-4 Inhibitor I -0.034 | ibrutinib -0.007 | [9] -0.026 | ralimetinib 0.038 | [10] -0.065 | [11] -0.022 | [12] 0.004 | [13] -0.046 | [14] -0.004 | [15] -0.041 | [16] 0.009

WASF2 (UniProt Q9Y6W5)
inactive: erlotinib -0.023 | [1] 0.023 | [2] -0.004 | [3] -0.016 | [4] 0 | [5] -0.033 | [6] -0.002 | [7] 0.002 | [8] 0.008 | IRAK-1-4 Inhibitor I -0.016 | ibrutinib -0.023 | [9] 0.01 | ralimetinib 0.032 | [10] 0.018 | [11] -0.011 | [12] 0.011 | [13] -0.001 | [14] -0.026 | [15] 0.018 | [16] 0.004

VWA5A (UniProt O00534)
inactive: erlotinib -0.021 | [1] -0.026 | [2] 0.013 | [3] 0.005 | [4] -0.012 | [5] 0.043 | [6] -0.061 | [7] -0.004 | [8] 0.048 | IRAK-1-4 Inhibitor I 0.011 | ibrutinib 0.037 | [9] -0.008 | ralimetinib 0.002 | [10] -0.025 | [11] 0.006 | [12] 0.021 | [13] -0.089 | [14] -0.002 | [15] -0.022 | [16] -0.013

WASHC2C (UniProt Q9Y4E1)
inactive: erlotinib -0.028 | [1] 0 | [2] -0.014 | [3] -0.036 | [4] -0.032 | [5] 0.006 | [6] -0.044 | [7] -0.051 | [8] 0.032 | IRAK-1-4 Inhibitor I 0.039 | ibrutinib 0.045 | [9] -0.044 | ralimetinib 0.02 | [10] -0.048 | [11] -0.045 | [12] 0.041 | [13] -0.01 | [14] -0.009 | [15] 0.014 | [16] -0.036

WDR70 (UniProt Q9NW82)
inactive: erlotinib 0.068 | [1] 0.012 | [2] -0.04 | [3] -0.005 | [4] -0.005 | [5] 0.009 | [6] 0.004 | [7] -0.013 | [8] -0.028 | IRAK-1-4 Inhibitor I -0.014 | ibrutinib 0.031 | [9] 0.025 | ralimetinib 0.008 | [10] 0.09 | [11] -0.057 | [12] -0.034 | [13] 0.01 | [14] -0.032 | [15] -0.021 | [16] -0.01

VMP1 (UniProt Q96GC9)
inactive: erlotinib -0.036 | [1] 0.015 | [2] 0.083 | [3] 0.034 | [4] 0.034 | [5] -0.023 | [6] -0.039 | [7] -0.035 | [8] 0.019 | IRAK-1-4 Inhibitor I 0.05 | ibrutinib -0.158 | [9] -0.003 | ralimetinib 0.022 | [10] -0.02 | [11] 0.025 | [12] -0.016 | [13] 0.022 | [14] 0.107 | [15] 0.032 | [16] -0.086

WDR75 (UniProt Q8IWA0)
inactive: erlotinib 0.021 | [1] 0.034 | [2] -0.049 | [3] 0.048 | [4] 0 | [5] -0.03 | [6] -0.115 | [7] 0.02 | [8] -0.041 | IRAK-1-4 Inhibitor I 0.017 | ibrutinib -0.024 | [9] 0.004 | ralimetinib -0.027 | [10] -0.004 | [11] -0.026 | [12] 0.062 | [13] -0.002 | [14] 0.006 | [15] -0.033 | [16] 0.043

XAB2 (UniProt Q9HCS7)
inactive: erlotinib 0.049 | [1] -0.088 | [2] -0.012 | [3] 0.076 | [4] 0.093 | [5] 0.012 | [6] -0.041 | [7] 0.071 | [8] -0.014 | IRAK-1-4 Inhibitor I 0.004 | ibrutinib -0.089 | [9] -0.048 | ralimetinib -0.002 | [10] -0.051 | [11] -0.011 | [12] 0.014 | [13] -0.032 | [14] 0.013 | [15] 0.03 | [16] -0.024

WASL (UniProt O00401)
inactive: erlotinib -0.037 | [1] 0.097 | [2] 0.057 | [3] 0.001 | [4] -0.039 | [5] 0.013 | [6] -0.065 | [7] 0.012 | [8] -0.024 | IRAK-1-4 Inhibitor I 0.009 | ibrutinib 0.023 | [9] 0.005 | ralimetinib -0.04 | [10] -0.058 | [11] 0.061 | [12] 0.038 | [13] 0.007 | [14] 0.014 | [15] 0.02 | [16] 0.002

WDR24 (UniProt Q96S15)
inactive: erlotinib 0.023 | [1] 0.014 | [2] 0.029 | [3] -0.042 | [4] -0.018 | [5] 0.058 | [6] -0.012 | [7] -0.034 | [8] -0.007 | IRAK-1-4 Inhibitor I 0.034 | ibrutinib -0.044 | [9] -0.016 | ralimetinib 0.025 | [10] -0.022 | [11] 0.041 | [12] 0.055 | [13] -0.011 | [14] 0.033 | [15] -0.034 | [16] 0.021

WBP4 (UniProt O75554)
inactive: erlotinib -0.036 | [1] -0.104 | [2] 0.042 | [3] 0.039 | [4] -0.026 | [5] 0.01 | [6] 0.008 | [7] -0.013 | [8] 0.017 | IRAK-1-4 Inhibitor I 0.027 | ibrutinib 0.013 | [9] -0.022 | ralimetinib -0.023 | [10] 0.021 | [11] -0.02 | [12] 0.058 | [13] -0.023 | [14] 0.051 | [15] 0.007 | [16] -0.02

WDR46 (UniProt O15213)
inactive: erlotinib 0.028 | [1] -0.068 | [2] -0.079 | [3] 0.002 | [4] -0.002 | [5] -0.011 | [6] 0.051 | [7] 0.07 | [8] 0.018 | IRAK-1-4 Inhibitor I 0.011 | ibrutinib -0.029 | [9] -0.002 | ralimetinib 0.074 | [10] -0.024 | [11] 0.011 | [12] -0.016 | [13] -0.059 | [14] 0.019 | [15] 0.05 | [16] 0.016
